Experimental data as given in PubChem BioAssay AID2685 (National Center for Advancing Translational Sciences (NCATS), 2010).
The other results are listed elsewhere or left out. Further columns of the screen follow, without active or inactive calls. The list favours compounds with an active or inconclusive main result. Potencies come from curve fits of mixed quality, noted in brackets. Where a SMILES comes first, the peptide text is derived from it. [ ]: non-standard residue; d: D form. The star is where a group is joined. ξ: configuration not given here. ξPhe(4-Me) = Cc1ccc(CC(N)C(=O)O)cc1; Bz = O=C(c1ccccc1)*

Assay: qHTS Assay for Lipid Storage Modulators in Drosophila S3 Cells;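 as to cell number change: cells counted by Cell Tracker Red CMTPX staining in the red channel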
Settings: BODIPY lipid droplet fluorescence, 18-24 h; for cell number change: measured here: cell count max response, cells fed with added oleic acid
Outline: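 Drosophila S3 cells got compounds at several concentrations plus oleic acid (400 uM solution). Laser-scanning cytometry with 488 nm excitation read lipid droplets at 500-530 nm and cells at 575-640 nm. Percent activity was relative to 20 uM Triacsin C.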

[1] = measured here: lipid fluorescence (Fed channel) AC50, cells fed with added oleic acid
[2] = measured here: cell number channel AC50, cells fed with added oleic acid

Row | SMILES | cell number change | AC50 [1] | AC50 [2]
1 | CC(C)c1ccc(NC(=O)c2cccnc2)cc1 | -14.6% | – | –
2 | Cc1ccccc1N(C(=O)c1snc(C(N)=O)c1N)C(C(=O)NCC1CCCO1)c1ccc(N(C)C)cc1 (stereo not given) | -23.1% | – | –
3 | c1ccc(-c2nc(NCc3ccco3)c3ccccc3n2)nc1 | -26.4% | – | –
4 | CCc1ccc(N2C(=O)CC(N3CCC(C(=O)OC)CC3)C2=O)cc1 (stereo not given) | 18.5% | 23.1 µM [falling, single point] | –
5 | Cc1ccc(F)cc1NC(=O)C1CC(=O)N(CCc2ccccc2)C1 (stereo not given) | 69.4% | – | 4.61 µM [rising, full curve, poor fit]
6 | N=C1C(c2nc3ccccc3[nH]2)=C(O)CN1c1ccccc1 | 23.1% | – | 1.84 µM [rising, partial curve, poor fit]
7 | CCOc1cc(/C=N\NC(=O)c2ccc(NC(=O)C(C)(C)C)cc2)ccc1OC(=O)c1ccc(C)cc1 | 15.9% | – | –
8 | COc1ccc(-c2nc(CN3CCN(c4ccccc4OC)CC3)c(C)o2)cc1 | -14.9% | 0.651 µM [falling, single point] | –
9 | CCOC(=O)C1(C)NC(c2ccc(O)cc2)C2C(=O)N(c3ccccc3)C(=O)C21 (stereo not given) | – | 29.1 µM [falling, single point] | –
10 | Nn1c(SCc2cccc(Oc3ccccc3)c2)nnc1C(F)(F)F | 28.7% | 18.4 µM [rising, single point] | –
11 | CSc1cccc(NS(=O)(=O)c2cc(Br)cnc2N)c1 | 20.1% | – | –
12 | Cc1ccc(CC(NC(=O)c2ccccc2)C(=O)NCC(=O)O)cc1 (stereo not given) (Bz-[ξPhe(4-Me)]-Gly-OH) | -18.4% | 25.9 µM [falling, partial curve] | –
13 | O=C(CN1CCN(c2ccc(O)cc2)CC1)Nc1ccc(-c2ccccc2)cc1 | – | – | 2.59 µM [rising, partial curve]
14 | Cc1ccc(-n2nnnc2SC(C(=O)c2c[nH]c3ccccc23)c2ccccc2)cc1 (stereo not given) | -15.4% | 13 µM [falling, single point] | –
15 | Cn1cc(S(=O)(=O)NCc2cccs2)c(=O)n(C)c1=O | -15% | 0.58 µM [falling, full curve, poor fit] | –
16 | Nc1nc(Cn2nnc(-c3ccccc3F)n2)nc(N2CCOCC2)n1 | 16.8% | 2.06 µM [rising, full curve, poor fit] | –
17 | COc1ccc(C2NCCc3cc(OC)c(OC)cc32)cc1OC (stereo not given) | 9.7% | 0.58 µM [falling, single point] | –
18 | CCCCN(CC)CCCNC(=O)c1cn(CC(C)C)c(=O)c2c1c1ccccc1n2C | 1.39% | – | –
19 | COc1ccc(C(c2c(C)n(C)n(-c3ccccc3)c2=O)c2c(C)n(C)n(-c3ccccc3)c2=O)cc1OC | 34.3% | 29.1 µM [rising, single point] | –
20 | COc1ccc(N2CCCn3c2nc2c3c(=O)n(CCCc3ccccc3)c(=O)n2C)cc1 | -17.9% | 0.206 µM [rising, full curve] | –
21 | CC(=O)N1c2ccc(S(=O)(=O)N3CCC(C(=O)N4CCN(c5cccc(C(F)(F)F)c5)CC4)CC3)cc2CC1C (stereo not given) | -36.7% | – | 29.1 µM [falling, single point]

Row | SMILES | cell number change | AC50 [1] | AC50 [2]
22 | O=C(O)c1c2c(nc3ccccc13)CCCCC2 | -26% | 16.4 µM [falling, single point] | –
23 | Cc1ccc(N(Cc2cc(=O)[nH]c3ccccc23)C(=O)C(C)C)c(C)c1 | -17.9% | – | –
24 | N#Cc1ccc(Cl)cc1NC(=O)COC(=O)c1ccc(S(=O)(=O)N2CCCC2)cc1 | 6.86% | 0.411 µM [falling, partial curve, poor fit] | –
25 | C=CCN1C(=O)/C(=C\C(C)=C\c2ccccc2)SC1=S | -5.11% | 18.4 µM [rising, partial curve] | –
26 | COc1cccc(NC(=O)Nc2nnc(CC(=O)Nc3ccccc3)s2)c1 | 14.3% | 1.84 µM [rising, full curve] | –
27 | O=C(CNC(=O)c1ccccc1)OC1CCCCC1 | -2.04% | – | 3.66 µM [rising, single point]
28 | Cc1ccc(S(=O)(=O)N2CCN(C(=O)Cn3nc(C(=O)O)c4ccccc4c3=O)CC2)cc1 | 35.1% | 0.92 µM [falling, full curve, poor fit] | –
29 | CCC(Sc1nc2ccc(C)cc2[nH]1)C(=O)O (stereo not given) | – | 6.51 µM [falling, single point] | –
30 | COc1ccc(NC(=O)CSc2nc3n[nH]c(C)c3c(=N)n2-c2ccc(Cl)c(C)c2)cc1OC | 117% | – | 20.6 µM [rising, partial curve]
31 | COc1ccc2ccccc2c1CN1CCCC(CO)C1 (stereo not given) | -2.48% | 0.0651 µM [falling, full curve, poor fit] | –
32 | C=CCN1C(=O)CSc2ccc(C(=O)NC3CCCCC3)cc21 | – | 4.11 µM [falling, single point] | –
33 | COc1cc(C(C(=O)NC(C)(C)C)N(C(=O)CNC(=O)c2cccs2)c2cccnc2)cc(OC)c1OC (stereo not given) | 10.4% | 29.1 µM [rising, single point] | –
34 | COC(=O)c1ccc(C2NC(C(=O)O)CS2)cc1 (stereo not given) | -22.9% | 0.731 µM [falling, full curve] | 3.66 µM [falling, full curve, poor fit]
35 | COCCCNC(=O)c1oc2ccc(S(=O)(=O)N3CCOCC3)cc2c1C | 4.35% | 0.58 µM [falling, single point] | –
36 | CCCCOc1ccc(C(C)NC(=O)CCS(=O)(=O)Cc2ccccc2Cl)cc1 (stereo not given) | -11.9% | 29.1 µM [falling, single point] | –
37 | Cc1cccn2c(=O)c3cc(C(=O)NCc4ccc(F)cc4)c(=N)n(CC4CCCO4)c3nc12 (stereo not given) | -12.3% | – | –
38 | COCCCNC(=O)C1=CCN(S(=O)(=O)c2ccc(OC)cc2)CC1 | -6.49% | 6.51 µM [falling, single point] | –
39 | COc1ccc(C(=O)N(C)c2ccccc2C(=O)NCCc2ccccc2)cc1 | 9.9% | 20.6 µM [rising, partial curve] | –
40 | CCN(C(=O)Cc1ccc(NC2=NC3CS(=O)(=O)CC3S2)cc1)c1ccccc1 (stereo not given) | 21.9% | 0.00517 µM [rising, full curve, poor fit] | –
41 | C(=C\c1ccccc1)/C=N/N1CCN(Cc2ccccc2)CC1 | 2.69% | 0.13 µM [falling, full curve, poor fit] | –
42 | O=C(c1ccc(-n2cncn2)c([N+](=O)[O-])c1)N1CCN(S(=O)(=O)c2ccc(Cl)cc2)CC1 | -3.46% | 0.0164 µM [rising, full curve, poor fit] | –

Row | SMILES | cell number change | AC50 [1] | AC50 [2]
43 | CC(=O)Oc1ccc(/C=N/NC(=O)C2CCCN2S(=O)(=O)c2ccc(Cl)cc2)cc1 (stereo not given) | – | – | 6.51 µM [rising, single point]
44 | CCCNc1nc(-c2ccccc2)c(C(=O)OCC)cc1C#N | – | 6.51 µM [rising, single point] | –
45 | CCOC(=O)/C(C)=N/NC(=O)c1ccc([N+](=O)[O-])cc1 | 18.7% | – | –
46 | CCCN1C(=O)C(O)(c2c(C)[nH]c3ccccc23)c2ccccc21 (stereo not given) | 20.9% | – | –
47 | COc1ccc(/C=N/NC(=O)C2(O)c3ccccc3-c3ccccc32)cc1 | -42.9% | 13 µM [falling, partial curve] | 0.184 µM [falling, full curve, poor fit]
48 | Cc1cc2oc(C(=O)NCCc3ccc(S(N)(=O)=O)cc3)c(C)c2cc1C | – | 0.146 µM [rising, full curve, poor fit] | 0.0291 µM [rising, full curve, poor fit]
49 | COC(=O)C(CCSC)NC(=O)CNC(=O)C1CCCCC1 (stereo not given) | -4.53% | 0.164 µM [falling, single point] | –
50 | O=C(O)/C=C\c1ccccc1Oc1ccc(F)cc1 | – | 2.91 µM [rising, partial curve] | 6.51 µM [rising, single point]
51 | COc1ccc(C(=S)N2CCNCC2)cc1 | 5.48% | – | 0.103 µM [falling, full curve, poor fit]
52 | CCc1ccc(C(=O)CN2C(=O)NC3(CCOc4ccccc43)C2=O)s1 (stereo not given) | -0.124% | 13 µM [falling, partial curve, poor fit] | –
53 | Cc1cc(NC(=O)CSc2nnc(-c3ccc(Cl)s3)o2)no1 | -41.3% | 29.1 µM [rising, single point] | 14.6 µM [falling, single point]
54 | CC(=O)Nc1ccc(S(=O)(=O)N2c3ccccc3C(C)=CC2(C)C)cc1 | -13.4% | 29.1 µM [falling, single point] | –
55 | CCn1c(CCC(=O)Nc2nc3c(s2)CCCC3)nc2cc(S(=O)(=O)N(C)C)ccc21 | -95.6% | – | 20.6 µM [falling, single point]
56 | Fc1ccccc1CNc1nc(-c2cccnc2)nc2ccccc12 | -17.1% | – | 1.46 µM [falling, full curve, poor fit]
57 | COc1ccc(CCC(=O)N2CCN(C3CCCCC3)CC2)cc1 | 12.4% | 23.1 µM [rising, single point] | –
58 | CCN(CC)CCn1c(=S)[nH]c2cc(C(=O)N3CC=C(c4ccccc4)CC3)ccc2c1=O | -4.53% | – | 0.13 µM [falling, full curve]
59 | O=C(Cc1cccs1)NNC(=S)NC(=O)c1ccco1 | -49% | 32.6 µM [falling, single point] | 29.1 µM [falling, single point]
60 | O=C1C(=O)N(CC2COc3ccccc3O2)c2ccccc21 (stereo not given) | -9.56% | 8.2 µM [falling, partial curve] | –
61 | Cc1occc1C(=O)N/N=C/c1ccc(Cl)c([N+](=O)[O-])c1 | -6.4% | 18.4 µM [falling, partial curve] | –

Some of these compounds in order of molecular weight, ascending:
Row | SMILES | cell number change | AC50 [1] | AC50 [2]
27 | O=C(CNC(=O)c1ccccc1)OC1CCCCC1 | -2.04% | – | 3.66 µM [rising, single point]
34 | COC(=O)c1ccc(C2NC(C(=O)O)CS2)cc1 (stereo not given) | -22.9% | 0.731 µM [falling, full curve] | 3.66 µM [falling, full curve, poor fit]
60 | O=C1C(=O)N(CC2COc3ccccc3O2)c2ccccc21 (stereo not given) | -9.56% | 8.2 µM [falling, partial curve] | –
41 | C(=C\c1ccccc1)/C=N/N1CCN(Cc2ccccc2)CC1 | 2.69% | 0.13 µM [falling, full curve, poor fit] | –
61 | Cc1occc1C(=O)N/N=C/c1ccc(Cl)c([N+](=O)[O-])c1 | -6.4% | 18.4 µM [falling, partial curve] | –
46 | CCCN1C(=O)C(O)(c2c(C)[nH]c3ccccc23)c2ccccc21 (stereo not given) | 20.9% | – | –
56 | Fc1ccccc1CNc1nc(-c2cccnc2)nc2ccccc12 | -17.1% | – | 1.46 µM [falling, full curve, poor fit]
53 | Cc1cc(NC(=O)CSc2nnc(-c3ccc(Cl)s3)o2)no1 | -41.3% | 29.1 µM [rising, single point] | 14.6 µM [falling, single point]
11 | CSc1cccc(NS(=O)(=O)c2cc(Br)cnc2N)c1 | 20.1% | – | –
8 | COc1ccc(-c2nc(CN3CCN(c4ccccc4OC)CC3)c(C)o2)cc1 | -14.9% | 0.651 µM [falling, single point] | –
14 | Cc1ccc(-n2nnnc2SC(C(=O)c2c[nH]c3ccccc23)c2ccccc2)cc1 (stereo not given) | -15.4% | 13 µM [falling, single point] | –
18 | CCCCN(CC)CCCNC(=O)c1cn(CC(C)C)c(=O)c2c1c1ccccc1n2C | 1.39% | – | –
20 | COc1ccc(N2CCCn3c2nc2c3c(=O)n(CCCc3ccccc3)c(=O)n2C)cc1 | -17.9% | 0.206 µM [rising, full curve] | –
43 | CC(=O)Oc1ccc(/C=N/NC(=O)C2CCCN2S(=O)(=O)c2ccc(Cl)cc2)cc1 (stereo not given) | – | – | 6.51 µM [rising, single point]
58 | CCN(CC)CCn1c(=S)[nH]c2cc(C(=O)N3CC=C(c4ccccc4)CC3)ccc2c1=O | -4.53% | – | 0.13 µM [falling, full curve]
19 | COc1ccc(C(c2c(C)n(C)n(-c3ccccc3)c2=O)c2c(C)n(C)n(-c3ccccc3)c2=O)cc1OC | 34.3% | 29.1 µM [rising, single point] | –
21 | CC(=O)N1c2ccc(S(=O)(=O)N3CCC(C(=O)N4CCN(c5cccc(C(F)(F)F)c5)CC4)CC3)cc2CC1C (stereo not given) | -36.7% | – | 29.1 µM [falling, single point]
